Where a chain is given by its changes, count along the chain named. The entries are a selection whose mix differs from that of the whole data set. Calls are pooled over several reports, among them a noisy single-well screen. Some of the results follow.
What was measured:
Details in all cases: stereoisomer not certain
[1] = target: T1, OR1D5 (Homo sapiens) (UniProt P58170)
T1 sequence (whole entry): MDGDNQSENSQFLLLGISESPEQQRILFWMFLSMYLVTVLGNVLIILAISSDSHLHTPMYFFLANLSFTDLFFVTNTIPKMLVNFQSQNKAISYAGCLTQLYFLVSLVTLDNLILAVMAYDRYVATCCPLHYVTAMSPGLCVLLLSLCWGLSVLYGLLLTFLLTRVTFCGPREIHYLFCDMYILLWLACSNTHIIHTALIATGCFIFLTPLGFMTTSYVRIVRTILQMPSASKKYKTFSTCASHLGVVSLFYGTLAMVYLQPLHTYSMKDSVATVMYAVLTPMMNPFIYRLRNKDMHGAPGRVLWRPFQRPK
Procedure, shortened: (§1)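 Values were gathered from published papers (main text and supplementary material), with extra details requested from the original authors when needed, and checked for typos and inconsistencies. Each receptor–molecule pair is called responsive (active) if the original authors judged the measured signal statistically different from baseline, and non-responsive (inactive) otherwise. Assay methods varied by source, often transient mammalian cell-line luciferase assays. Recorded details include cell line, G-protein, co-transfected protein and tags.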

Chains of the proteins cited; added tags and fusions are not shown. A line that says so, or that is headed by a name, gives the form on record, which may keep a tag or linker.
OR1E2, as listed by the source: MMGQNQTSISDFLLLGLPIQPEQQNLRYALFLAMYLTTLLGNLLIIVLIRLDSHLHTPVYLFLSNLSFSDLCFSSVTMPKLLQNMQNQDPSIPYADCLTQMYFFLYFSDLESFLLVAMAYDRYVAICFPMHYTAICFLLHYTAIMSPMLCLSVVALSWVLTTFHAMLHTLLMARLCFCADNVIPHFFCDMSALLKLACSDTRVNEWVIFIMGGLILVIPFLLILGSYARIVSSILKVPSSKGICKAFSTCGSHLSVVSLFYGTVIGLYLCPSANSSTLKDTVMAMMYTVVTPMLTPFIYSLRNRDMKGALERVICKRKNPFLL

[2] = system: T2, OR1E1
T2 sequence (whole entry): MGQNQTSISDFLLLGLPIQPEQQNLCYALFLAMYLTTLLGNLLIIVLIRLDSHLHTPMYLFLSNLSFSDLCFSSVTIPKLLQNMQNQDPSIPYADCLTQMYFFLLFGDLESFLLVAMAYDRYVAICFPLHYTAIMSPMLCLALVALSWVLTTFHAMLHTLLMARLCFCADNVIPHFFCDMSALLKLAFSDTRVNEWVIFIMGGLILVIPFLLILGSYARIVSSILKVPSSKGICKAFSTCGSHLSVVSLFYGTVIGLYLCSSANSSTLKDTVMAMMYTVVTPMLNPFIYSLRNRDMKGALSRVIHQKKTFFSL
Procedure, shortened: as §1

[3] = system: T3, OR1E1; remark: listed apart in the source
T3 sequence (whole entry): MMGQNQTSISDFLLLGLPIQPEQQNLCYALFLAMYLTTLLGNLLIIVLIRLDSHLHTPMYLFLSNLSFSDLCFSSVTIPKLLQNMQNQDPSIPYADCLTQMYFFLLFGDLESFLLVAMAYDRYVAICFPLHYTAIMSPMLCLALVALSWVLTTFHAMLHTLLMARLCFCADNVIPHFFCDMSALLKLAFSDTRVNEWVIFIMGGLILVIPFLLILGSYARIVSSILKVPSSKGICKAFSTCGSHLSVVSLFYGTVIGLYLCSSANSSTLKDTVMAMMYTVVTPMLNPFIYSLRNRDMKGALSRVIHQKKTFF
Procedure, shortened: as §1

[4] = target: T4, OR1E2 (Homo sapiens) (UniProt P47887)
T4 sequence (whole entry): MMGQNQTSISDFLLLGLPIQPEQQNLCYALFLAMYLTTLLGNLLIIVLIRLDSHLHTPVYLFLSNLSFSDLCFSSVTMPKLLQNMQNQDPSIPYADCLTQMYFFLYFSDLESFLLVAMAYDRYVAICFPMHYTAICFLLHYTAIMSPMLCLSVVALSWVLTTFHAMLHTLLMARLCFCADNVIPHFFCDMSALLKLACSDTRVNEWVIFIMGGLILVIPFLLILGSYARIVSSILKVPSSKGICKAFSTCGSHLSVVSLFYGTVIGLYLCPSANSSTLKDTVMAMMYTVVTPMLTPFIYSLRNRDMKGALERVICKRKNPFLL
Procedure, shortened: as §1

[5] = system: T5, OR1E2
T5 sequence (whole entry): T4 sequence (whole entry) with C27R
Procedure, shortened: as §1

[6] = system: T6, OR1F1
T6 sequence (whole entry): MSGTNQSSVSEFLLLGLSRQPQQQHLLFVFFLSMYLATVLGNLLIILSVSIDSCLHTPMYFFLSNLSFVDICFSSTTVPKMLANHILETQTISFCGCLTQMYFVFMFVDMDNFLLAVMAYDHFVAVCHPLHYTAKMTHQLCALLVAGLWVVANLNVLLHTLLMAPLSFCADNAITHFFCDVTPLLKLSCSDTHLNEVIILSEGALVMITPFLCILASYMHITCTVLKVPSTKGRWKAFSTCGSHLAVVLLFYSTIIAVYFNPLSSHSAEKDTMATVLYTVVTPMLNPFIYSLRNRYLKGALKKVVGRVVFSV
Procedure, shortened: as §1

[7] = target: T7, OR1G1 (Homo sapiens) (UniProt P47890)
T7 sequence (whole entry): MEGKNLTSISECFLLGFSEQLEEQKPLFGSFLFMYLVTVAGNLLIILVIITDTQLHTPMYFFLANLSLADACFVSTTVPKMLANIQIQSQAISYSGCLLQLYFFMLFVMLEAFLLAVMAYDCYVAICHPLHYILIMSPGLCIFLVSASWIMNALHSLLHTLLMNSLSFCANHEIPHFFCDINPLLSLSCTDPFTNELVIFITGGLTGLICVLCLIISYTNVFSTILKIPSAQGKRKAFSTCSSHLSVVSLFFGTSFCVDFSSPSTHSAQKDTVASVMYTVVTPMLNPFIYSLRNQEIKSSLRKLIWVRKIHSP
Procedure, shortened: as §1

[8] = system: T8, OR1I1
T8 sequence (whole entry): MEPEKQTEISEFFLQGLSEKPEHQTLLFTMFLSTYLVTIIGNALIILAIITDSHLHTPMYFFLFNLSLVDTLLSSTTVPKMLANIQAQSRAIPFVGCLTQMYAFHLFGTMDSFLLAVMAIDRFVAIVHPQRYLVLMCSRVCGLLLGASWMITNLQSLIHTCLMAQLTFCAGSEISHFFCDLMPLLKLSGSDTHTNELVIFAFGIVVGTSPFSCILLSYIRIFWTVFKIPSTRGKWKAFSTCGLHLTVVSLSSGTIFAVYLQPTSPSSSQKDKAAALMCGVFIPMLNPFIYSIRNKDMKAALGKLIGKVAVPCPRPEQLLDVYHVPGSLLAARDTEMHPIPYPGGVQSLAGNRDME
Procedure, shortened: as §1

[9] = target: T9, OR1J2 (Homo sapiens) (UniProt Q8NGS2)
T9 sequence (whole entry): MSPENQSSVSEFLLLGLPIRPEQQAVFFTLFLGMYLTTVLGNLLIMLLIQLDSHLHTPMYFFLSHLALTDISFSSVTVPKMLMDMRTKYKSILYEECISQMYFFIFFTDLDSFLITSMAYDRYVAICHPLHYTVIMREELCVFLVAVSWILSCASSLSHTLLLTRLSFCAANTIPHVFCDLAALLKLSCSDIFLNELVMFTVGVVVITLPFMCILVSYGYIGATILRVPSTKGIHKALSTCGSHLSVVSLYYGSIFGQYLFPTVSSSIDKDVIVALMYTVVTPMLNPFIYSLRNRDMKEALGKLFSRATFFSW
Procedure, shortened: as §1

[10] = target: T10, OR1J4 (Homo sapiens) (UniProt Q8NGS1)
T10 sequence (whole entry): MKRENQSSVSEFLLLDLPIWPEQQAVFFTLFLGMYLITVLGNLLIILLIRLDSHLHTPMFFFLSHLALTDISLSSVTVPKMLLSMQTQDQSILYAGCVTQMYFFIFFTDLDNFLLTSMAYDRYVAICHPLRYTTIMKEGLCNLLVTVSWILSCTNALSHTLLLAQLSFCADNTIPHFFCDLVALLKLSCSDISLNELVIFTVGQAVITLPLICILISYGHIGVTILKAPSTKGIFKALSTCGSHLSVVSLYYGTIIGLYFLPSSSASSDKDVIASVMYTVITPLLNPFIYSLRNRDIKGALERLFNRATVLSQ
Procedure, shortened: as §1

[11] = target: T11, OR1K1 (Homo sapiens) (UniProt Q8NGR3)
T11 sequence (whole entry): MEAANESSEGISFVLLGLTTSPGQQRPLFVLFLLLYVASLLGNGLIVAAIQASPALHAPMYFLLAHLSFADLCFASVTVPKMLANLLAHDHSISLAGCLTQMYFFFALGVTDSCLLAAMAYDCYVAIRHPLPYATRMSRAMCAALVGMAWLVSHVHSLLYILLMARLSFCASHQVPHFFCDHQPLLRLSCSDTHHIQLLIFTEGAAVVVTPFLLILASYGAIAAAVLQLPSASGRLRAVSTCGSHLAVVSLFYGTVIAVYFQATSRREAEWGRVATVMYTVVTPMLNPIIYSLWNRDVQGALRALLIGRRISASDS
Procedure, shortened: as §1

[12] = system: T12, OR1D5
T12 sequence (whole entry): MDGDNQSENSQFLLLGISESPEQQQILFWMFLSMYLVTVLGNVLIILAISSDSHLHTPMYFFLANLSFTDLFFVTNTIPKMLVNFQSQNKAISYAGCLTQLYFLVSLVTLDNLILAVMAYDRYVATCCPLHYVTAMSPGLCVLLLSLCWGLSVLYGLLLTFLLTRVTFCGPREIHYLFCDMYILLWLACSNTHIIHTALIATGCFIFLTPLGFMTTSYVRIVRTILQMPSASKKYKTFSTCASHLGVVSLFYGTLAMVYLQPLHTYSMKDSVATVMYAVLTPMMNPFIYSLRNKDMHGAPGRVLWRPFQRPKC
Procedure, shortened: as §1

[13] = system: T13, OR1FC
T13 sequence (whole entry): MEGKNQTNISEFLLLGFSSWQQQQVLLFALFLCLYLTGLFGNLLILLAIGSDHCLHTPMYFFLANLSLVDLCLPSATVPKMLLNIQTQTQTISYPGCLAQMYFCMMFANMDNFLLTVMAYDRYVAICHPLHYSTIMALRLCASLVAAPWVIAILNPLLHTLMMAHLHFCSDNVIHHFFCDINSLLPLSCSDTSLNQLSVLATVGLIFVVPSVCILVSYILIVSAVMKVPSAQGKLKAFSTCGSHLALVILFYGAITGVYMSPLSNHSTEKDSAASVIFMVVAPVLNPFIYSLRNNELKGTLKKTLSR
Procedure, shortened: as §1

[14] = target: T14, OR1J1 (Homo sapiens) (UniProt Q8NGS3)
T14 sequence (whole entry): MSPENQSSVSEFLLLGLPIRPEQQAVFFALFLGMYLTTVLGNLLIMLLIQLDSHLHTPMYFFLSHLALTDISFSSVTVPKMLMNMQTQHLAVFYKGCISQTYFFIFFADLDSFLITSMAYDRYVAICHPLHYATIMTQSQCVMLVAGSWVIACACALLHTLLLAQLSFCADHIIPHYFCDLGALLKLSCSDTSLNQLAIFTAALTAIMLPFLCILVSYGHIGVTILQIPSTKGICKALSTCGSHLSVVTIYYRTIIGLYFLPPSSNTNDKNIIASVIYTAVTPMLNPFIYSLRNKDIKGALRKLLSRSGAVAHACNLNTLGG
Procedure, shortened: as §1

SMILES	odorant receptor agonist call [1]	odorant receptor agonist call [2]	odorant receptor agonist call [3]	odorant receptor agonist call [4]	odorant receptor agonist call [5]	odorant receptor agonist call [6]	odorant receptor agonist call [7]	odorant receptor agonist call [8]	odorant receptor agonist call [9]	odorant receptor agonist call [10]	odorant receptor agonist call [11]	odorant receptor agonist call [12]	odorant receptor agonist call [13]	odorant receptor agonist call [14]
CC(=O)c1ccccc1	inactive	inactive	inactive	inactive	inactive	inactive	active	inactive	inactive	inactive	inactive	–	–	–
CCCCCCC=O	–	–	–	–	–	–	active	–	–	–	–	–	–	–
O=C1CCCCCCCCCCCCCCO1	inactive	inactive	inactive	inactive	inactive	inactive	inactive	inactive	inactive	inactive	inactive	inactive	inactive	inactive
CCC=CCCO	inactive	inactive	inactive	inactive	inactive	inactive	inactive	inactive	inactive	inactive	inactive	inactive	inactive	active
COc1ccccc1O	inactive	inactive	inactive	inactive	inactive	inactive	active	inactive	inactive	inactive	inactive	inactive	inactive	inactive
O=C1CCCCC1	inactive	inactive	inactive	inactive	inactive	inactive	inactive	inactive	inactive	inactive	inactive	–	–	–
C=CCc1ccc(OC)c(OC)c1	inactive	inactive	inactive	inactive	inactive	inactive	inactive	inactive	inactive	inactive	inactive	inactive	inactive	inactive

Source: the M2OR odorant receptor database
